From PMC11312485
No constants are given. Whether binding was seen depends on the method and setting. Binding seen in cells or lysates may run through a third protein. Here binding means that the protein was enriched with, or labelled near, the bait; the list need not be complete.

Chains of the proteins cited; added tags and fusions are not shown.
UniProt Q12834: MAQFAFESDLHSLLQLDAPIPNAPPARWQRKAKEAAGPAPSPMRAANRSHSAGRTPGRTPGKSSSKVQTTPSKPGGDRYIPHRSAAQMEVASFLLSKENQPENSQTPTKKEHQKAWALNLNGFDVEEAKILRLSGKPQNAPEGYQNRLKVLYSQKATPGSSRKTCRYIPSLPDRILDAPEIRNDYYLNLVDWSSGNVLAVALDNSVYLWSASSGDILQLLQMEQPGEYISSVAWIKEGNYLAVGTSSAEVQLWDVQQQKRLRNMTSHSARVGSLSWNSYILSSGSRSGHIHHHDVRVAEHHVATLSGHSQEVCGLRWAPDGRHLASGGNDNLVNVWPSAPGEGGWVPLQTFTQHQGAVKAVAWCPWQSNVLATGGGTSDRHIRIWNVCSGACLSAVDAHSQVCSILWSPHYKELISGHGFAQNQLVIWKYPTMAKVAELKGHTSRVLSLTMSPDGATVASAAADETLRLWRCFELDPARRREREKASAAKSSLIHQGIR
UniProt P27694: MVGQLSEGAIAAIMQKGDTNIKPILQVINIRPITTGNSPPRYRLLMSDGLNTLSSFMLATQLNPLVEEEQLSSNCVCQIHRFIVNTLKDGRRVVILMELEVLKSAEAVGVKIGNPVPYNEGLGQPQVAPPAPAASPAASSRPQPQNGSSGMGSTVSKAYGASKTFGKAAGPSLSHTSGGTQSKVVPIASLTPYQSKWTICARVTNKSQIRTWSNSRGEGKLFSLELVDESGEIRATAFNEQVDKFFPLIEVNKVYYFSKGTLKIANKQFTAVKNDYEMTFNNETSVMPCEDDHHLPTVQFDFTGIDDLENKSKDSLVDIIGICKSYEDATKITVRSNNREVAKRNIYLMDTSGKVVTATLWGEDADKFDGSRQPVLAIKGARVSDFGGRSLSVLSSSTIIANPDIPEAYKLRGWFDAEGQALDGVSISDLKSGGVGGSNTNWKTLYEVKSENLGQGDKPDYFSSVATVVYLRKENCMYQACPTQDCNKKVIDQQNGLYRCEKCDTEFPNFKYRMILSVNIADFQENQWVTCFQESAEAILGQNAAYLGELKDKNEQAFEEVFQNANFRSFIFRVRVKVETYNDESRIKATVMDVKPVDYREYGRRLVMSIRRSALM

Biological target: Cell division cycle 20 (CDC20) (human (endogenous in KYSE450 and KYSE200)) (UniProt Q12834)
Assay: affinity purification with mass spectrometry; KYSE450 cells treated with 5 Gy X-ray; whole-cell lysate immunoprecipitated with CDC20 antibody, eluate separated by SDS-PAGE, bands digested and analysed by LC-MS/MS

binding: binds
Substance: RPA1 (from UniProt P27694 1-616)
